± gives the standard deviation of the averaged measurements. The list shows a part of the results.
Compound: Nc1nc2c(ncn2[C@@H]2O[C@H](COP(=O)(O)OP(=O)(O)OP(=O)(O)O)[C@@H](O)[C@H]2O)c(=O)[nH]1 [guanosine triphosphate]
Assay: NP40-soluble protein abundance relative to vehicle (solubility fold change) (ratio); higher = more soluble protein in presence of GTP
Procedure, shortened: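 Data come from three independent experiments in which Dounce-homogenised Jurkat crude lysate was treated at eight concentrations from 0.1 to 10 mM. Treatment ran 10 min at room temperature and then 3 min at 37 °C, after which 0.8% NP40 and benzonase were added for 60 min at 4 °C before ultracentrifugation. The supernatant underwent TMT labelling and LC-MS/MS, and vsn-normalised intensities were expressed as fold change against the detergent-processed vehicle in each replicate.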

Chains of the proteins cited; added tags and fusions are not shown. Lines headed by an entry give the natural chain unless they say otherwise; changes in a name come on top.
UniProt Q00169: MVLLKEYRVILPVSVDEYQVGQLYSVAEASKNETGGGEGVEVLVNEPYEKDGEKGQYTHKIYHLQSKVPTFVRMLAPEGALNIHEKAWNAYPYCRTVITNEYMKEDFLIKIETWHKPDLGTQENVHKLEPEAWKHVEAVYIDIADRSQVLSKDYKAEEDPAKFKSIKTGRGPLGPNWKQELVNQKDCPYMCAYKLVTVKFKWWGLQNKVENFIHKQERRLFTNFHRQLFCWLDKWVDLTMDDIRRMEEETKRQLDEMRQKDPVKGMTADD
UniProt P57088: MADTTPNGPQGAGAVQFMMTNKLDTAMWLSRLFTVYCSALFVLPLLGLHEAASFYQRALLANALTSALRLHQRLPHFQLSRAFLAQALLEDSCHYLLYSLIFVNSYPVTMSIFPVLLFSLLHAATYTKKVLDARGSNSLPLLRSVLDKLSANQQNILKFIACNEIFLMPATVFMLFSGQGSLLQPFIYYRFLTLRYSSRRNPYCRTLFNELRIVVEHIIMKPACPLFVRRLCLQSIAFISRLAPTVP
UniProt P54920: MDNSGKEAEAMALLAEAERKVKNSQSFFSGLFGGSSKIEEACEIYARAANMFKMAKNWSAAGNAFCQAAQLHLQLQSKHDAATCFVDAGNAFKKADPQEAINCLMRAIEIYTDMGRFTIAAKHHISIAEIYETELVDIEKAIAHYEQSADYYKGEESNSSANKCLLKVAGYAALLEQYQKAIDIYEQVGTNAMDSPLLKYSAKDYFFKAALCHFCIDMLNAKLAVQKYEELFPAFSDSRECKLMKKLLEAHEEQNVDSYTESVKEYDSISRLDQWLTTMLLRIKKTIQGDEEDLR
UniProt P62312: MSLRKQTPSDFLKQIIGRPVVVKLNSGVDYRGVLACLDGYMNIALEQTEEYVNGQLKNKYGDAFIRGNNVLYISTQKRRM
UniProt P98170, whole entry: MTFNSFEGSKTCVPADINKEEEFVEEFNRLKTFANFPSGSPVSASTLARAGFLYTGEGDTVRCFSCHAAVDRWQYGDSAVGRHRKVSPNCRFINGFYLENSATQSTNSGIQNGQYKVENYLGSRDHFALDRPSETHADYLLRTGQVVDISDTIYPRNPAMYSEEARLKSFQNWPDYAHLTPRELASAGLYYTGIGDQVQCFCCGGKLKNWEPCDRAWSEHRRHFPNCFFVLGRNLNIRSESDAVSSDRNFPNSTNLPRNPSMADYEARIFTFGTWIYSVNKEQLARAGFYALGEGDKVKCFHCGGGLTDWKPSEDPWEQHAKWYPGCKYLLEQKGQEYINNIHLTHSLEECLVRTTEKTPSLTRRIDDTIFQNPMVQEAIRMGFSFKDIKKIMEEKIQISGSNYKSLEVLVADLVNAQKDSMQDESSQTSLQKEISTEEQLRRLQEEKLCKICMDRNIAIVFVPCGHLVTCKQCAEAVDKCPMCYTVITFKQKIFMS
UniProt P60228, whole entry: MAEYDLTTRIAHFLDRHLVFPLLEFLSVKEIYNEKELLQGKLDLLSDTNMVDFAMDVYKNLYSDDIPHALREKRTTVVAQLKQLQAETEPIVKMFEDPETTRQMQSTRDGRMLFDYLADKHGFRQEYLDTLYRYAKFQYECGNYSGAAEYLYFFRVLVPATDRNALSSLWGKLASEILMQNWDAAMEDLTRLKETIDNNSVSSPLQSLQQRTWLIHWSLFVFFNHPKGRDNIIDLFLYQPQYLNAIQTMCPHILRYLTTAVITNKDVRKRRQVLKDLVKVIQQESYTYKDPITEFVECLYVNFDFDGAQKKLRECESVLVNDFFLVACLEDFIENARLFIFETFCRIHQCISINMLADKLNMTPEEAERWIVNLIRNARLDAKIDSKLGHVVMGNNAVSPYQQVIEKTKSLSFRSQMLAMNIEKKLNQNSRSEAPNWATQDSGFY
UniProt P55060: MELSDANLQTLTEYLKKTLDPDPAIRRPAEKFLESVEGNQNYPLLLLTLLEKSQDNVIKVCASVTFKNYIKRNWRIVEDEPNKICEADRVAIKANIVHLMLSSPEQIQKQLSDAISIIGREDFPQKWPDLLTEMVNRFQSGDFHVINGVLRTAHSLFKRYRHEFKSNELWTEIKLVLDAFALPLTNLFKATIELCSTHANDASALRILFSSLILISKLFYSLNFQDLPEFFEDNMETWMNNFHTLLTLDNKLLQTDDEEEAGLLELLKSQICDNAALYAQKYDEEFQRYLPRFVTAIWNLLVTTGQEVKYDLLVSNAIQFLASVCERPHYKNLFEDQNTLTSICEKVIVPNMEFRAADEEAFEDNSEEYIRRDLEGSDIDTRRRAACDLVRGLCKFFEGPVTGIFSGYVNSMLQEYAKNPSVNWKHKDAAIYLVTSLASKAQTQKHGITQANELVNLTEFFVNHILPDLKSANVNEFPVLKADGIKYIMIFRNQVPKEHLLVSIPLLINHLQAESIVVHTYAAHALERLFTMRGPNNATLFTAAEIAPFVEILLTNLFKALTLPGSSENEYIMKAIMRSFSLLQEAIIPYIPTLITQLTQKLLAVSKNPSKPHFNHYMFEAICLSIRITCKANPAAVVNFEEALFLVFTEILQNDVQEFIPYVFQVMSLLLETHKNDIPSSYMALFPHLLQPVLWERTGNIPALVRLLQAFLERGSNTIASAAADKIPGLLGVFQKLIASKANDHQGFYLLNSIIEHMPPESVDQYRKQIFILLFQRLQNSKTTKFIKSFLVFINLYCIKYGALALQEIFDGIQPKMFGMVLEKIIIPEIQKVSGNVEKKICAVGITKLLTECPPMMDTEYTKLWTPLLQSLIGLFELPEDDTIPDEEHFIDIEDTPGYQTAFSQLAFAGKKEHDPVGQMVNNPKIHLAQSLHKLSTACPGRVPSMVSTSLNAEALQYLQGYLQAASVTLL
UniProt P60604: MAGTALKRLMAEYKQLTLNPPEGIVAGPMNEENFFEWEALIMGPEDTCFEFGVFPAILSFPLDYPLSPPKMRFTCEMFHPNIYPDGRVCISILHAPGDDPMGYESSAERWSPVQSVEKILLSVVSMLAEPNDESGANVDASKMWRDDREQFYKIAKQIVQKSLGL
UniProt P54619: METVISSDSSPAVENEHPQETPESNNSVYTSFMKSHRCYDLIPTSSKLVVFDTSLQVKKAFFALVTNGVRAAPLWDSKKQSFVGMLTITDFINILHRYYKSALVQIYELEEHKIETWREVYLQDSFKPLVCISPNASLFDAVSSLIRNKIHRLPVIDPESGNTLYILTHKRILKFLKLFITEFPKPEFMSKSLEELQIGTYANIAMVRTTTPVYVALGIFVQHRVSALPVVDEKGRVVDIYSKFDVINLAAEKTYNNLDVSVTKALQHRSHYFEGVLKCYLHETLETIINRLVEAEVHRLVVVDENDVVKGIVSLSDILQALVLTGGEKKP
UniProt P62877, whole entry, looked up: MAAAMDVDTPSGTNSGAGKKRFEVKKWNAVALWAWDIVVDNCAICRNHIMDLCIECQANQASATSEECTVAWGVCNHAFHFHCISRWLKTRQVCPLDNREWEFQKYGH
UniProt P78371: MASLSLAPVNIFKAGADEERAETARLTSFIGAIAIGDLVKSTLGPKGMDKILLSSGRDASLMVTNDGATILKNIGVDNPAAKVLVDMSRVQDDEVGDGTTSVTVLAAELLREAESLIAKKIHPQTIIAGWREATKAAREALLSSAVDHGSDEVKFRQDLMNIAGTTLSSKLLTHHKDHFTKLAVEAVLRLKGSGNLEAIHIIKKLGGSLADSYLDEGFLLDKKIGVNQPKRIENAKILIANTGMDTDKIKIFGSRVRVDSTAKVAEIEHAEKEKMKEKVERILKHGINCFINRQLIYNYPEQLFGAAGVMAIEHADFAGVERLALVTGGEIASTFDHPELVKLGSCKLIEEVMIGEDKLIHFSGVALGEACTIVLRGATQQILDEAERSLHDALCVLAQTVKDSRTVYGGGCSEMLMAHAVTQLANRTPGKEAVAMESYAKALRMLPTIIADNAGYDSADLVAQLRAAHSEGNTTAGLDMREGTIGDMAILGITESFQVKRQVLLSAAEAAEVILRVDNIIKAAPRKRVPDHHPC
UniProt P62310: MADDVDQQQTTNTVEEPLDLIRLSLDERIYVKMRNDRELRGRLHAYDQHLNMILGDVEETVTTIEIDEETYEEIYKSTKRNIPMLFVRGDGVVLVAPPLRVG
UniProt P50454: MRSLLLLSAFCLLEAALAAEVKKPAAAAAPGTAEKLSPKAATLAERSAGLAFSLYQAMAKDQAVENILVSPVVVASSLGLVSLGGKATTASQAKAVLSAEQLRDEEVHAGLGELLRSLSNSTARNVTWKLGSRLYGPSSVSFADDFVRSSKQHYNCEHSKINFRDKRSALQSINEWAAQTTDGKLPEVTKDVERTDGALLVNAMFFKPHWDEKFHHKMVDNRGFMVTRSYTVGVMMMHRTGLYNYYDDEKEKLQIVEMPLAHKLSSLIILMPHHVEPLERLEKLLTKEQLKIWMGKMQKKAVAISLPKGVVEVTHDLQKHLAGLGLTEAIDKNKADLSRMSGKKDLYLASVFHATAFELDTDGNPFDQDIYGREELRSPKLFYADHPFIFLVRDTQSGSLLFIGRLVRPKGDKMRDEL

Target	NP40-soluble protein abundance (concentration: 0.1mM)	NP40-soluble protein abundance (concentration: 0.5mM)	NP40-soluble protein abundance (concentration: 1mM)	NP40-soluble protein abundance (concentration: 2mM)	NP40-soluble protein abundance (concentration: 4mM)	NP40-soluble protein abundance (concentration: 6mM)	NP40-soluble protein abundance (concentration: 8mM)	NP40-soluble protein abundance (concentration: 10mM)
ACTR3 (UniProt P61158)	1.03 ± 0.05	1.07 ± 0.041	1.01 ± 0.036	0.998 ± 0.054	0.981 ± 0.038	0.988 ± 0.03	0.982 ± 0.015	0.944 ± 0.047
UniProt Q00169 and related entries	0.968 ± 0.036	0.967 ± 0.046	0.904 ± 0.013	0.911 ± 0.023	0.888 ± 0.04	0.884 ± 0.037	0.833 ± 0.046	0.851 ± 0.064
TMEM33 (UniProt P57088)	1.01 ± 0.12	0.998 ± 0.095	0.844 ± 0.048	0.939 ± 0.21	0.947 ± 0.18	0.845 ± 0.1	0.818 ± 0.089	0.883 ± 0.12
UniProt P54920 and related entries	0.8901 ± 0.0051	0.858 ± 0.05	0.978 ± 0.042	0.963 ± 0.039	0.962 ± 0.029	0.943 ± 0.021	0.881 ± 0.1	0.951 ± 0.037
UniProt P62312	0.902 ± 0.05	0.886 ± 0.052	0.987 ± 0.069	0.939 ± 0.017	0.915 ± 0.057	0.956 ± 0.03	0.911 ± 0.064	0.952 ± 0.045
XIAP (UniProt P98170)	1.05 ± 0.19	1 ± 0.1	1.06 ± 0.13	1.06 ± 0.18	1.07 ± 0.18	1.04 ± 0.14	0.982 ± 0.1	0.975 ± 0.079
UniProt P60228	1.09 ± 0.046	1.08 ± 0.061	1.05 ± 0.098	1.14 ± 0.17	1.32 ± 0.27	1.44 ± 0.33	1.58 ± 0.3	1.75 ± 0.38
UniProt P55060 and related entries	1.016 ± 0.0067	0.995 ± 0.025	0.965 ± 0.014	0.94 ± 0.037	0.932 ± 0.033	0.917 ± 0.043	0.923 ± 0.039	0.9 ± 0.036
UniProt P60604	1.08 ± 0.071	0.982 ± 0.018	1.12 ± 0.048	1.06 ± 0.065	1.1 ± 0.03	1.04 ± 0.012	1.15 ± 0.065	1.15 ± 0.044
UniProt P54619 and related entries	1.07 ± 0.051	1.06 ± 0.082	0.994 ± 0.035	0.982 ± 0.12	0.957 ± 0.086	0.949 ± 0.076	0.907 ± 0.019	0.916 ± 0.086
UniProt P62877	0.911 ± 0.096	0.906 ± 0.13	0.848 ± 0.092	0.875 ± 0.13	0.877 ± 0.095	0.853 ± 0.12	0.811 ± 0.075	0.831 ± 0.076
CCT2 (UniProt P78371)	1 ± 0.021	1.06 ± 0.07	1.07 ± 0.12	1.08 ± 0.16	1.08 ± 0.18	1.07 ± 0.19	1.06 ± 0.19	0.999 ± 0.19
UniProt P62310	0.934 ± 0.057	0.937 ± 0.045	0.96 ± 0.093	0.963 ± 0.085	0.957 ± 0.096	0.931 ± 0.091	0.963 ± 0.02	1.01 ± 0.053
UniProt P62249	0.986 ± 0.1	1 ± 0.14	1.07 ± 0.23	0.992 ± 0.23	0.907 ± 0.29	0.87 ± 0.28	0.738 ± 0.2	0.788 ± 0.26
SERPINH1 (UniProt P50454)	0.964 ± 0.048	0.966 ± 0.044	0.889 ± 0.05	0.875 ± 0.061	0.847 ± 0.059	0.85 ± 0.036	0.868 ± 0.074	0.86 ± 0.081

Looked up above.
NP40-soluble protein abundance (concentration: 0.1mM), UniProt Q00169 and related entries reads 0.968 ± 0.036
NP40-soluble protein abundance (concentration: 10mM), UniProt P55060 and related entries reads 0.9 ± 0.036
